This test deals with horse MAVS CARD E26R (horse). The experiment in a line: SEC; gel filtration of CARD mutants purified from E. coli; a homogenous monomeric peak counts as soluble; both purified.

Chains of the proteins cited; added tags and fusions are not shown. Lines headed by an entry give the natural chain unless they say otherwise; changes in a name come on top.
UniProt A0A3Q2ICL5: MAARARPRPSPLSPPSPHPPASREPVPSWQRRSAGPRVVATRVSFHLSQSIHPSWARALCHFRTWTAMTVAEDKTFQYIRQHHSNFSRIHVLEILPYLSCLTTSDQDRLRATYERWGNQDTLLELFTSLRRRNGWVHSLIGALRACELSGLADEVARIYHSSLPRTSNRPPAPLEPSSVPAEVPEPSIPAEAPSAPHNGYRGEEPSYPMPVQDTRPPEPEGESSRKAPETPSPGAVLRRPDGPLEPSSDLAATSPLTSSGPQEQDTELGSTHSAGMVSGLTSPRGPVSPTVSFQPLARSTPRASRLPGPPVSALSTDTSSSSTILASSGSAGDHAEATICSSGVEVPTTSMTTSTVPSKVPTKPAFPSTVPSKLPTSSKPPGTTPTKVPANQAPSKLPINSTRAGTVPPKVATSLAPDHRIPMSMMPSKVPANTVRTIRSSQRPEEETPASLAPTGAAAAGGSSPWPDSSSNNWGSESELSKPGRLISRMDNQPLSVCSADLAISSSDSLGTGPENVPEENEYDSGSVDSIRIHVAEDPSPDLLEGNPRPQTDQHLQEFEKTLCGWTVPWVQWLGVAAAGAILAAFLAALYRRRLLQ

No constants are given. Whether binding was seen depends on the method and setting.

Regarding “horse MAVS CARD E26R (from UniProt A0A3Q2ICL5 68-161) (domain or fragment)”, the binding entry is “no binding”.

The values are drawn from paper PMC3932521.
